Source: PubChem BioAssay AID1259254 (NCATS, 2017)
Aim: 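Genome-wide screen for genes that prevent DNA re-replication in cancer cells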 (primary screen). Cell system: human HCT116 colorectal cancer cells. Reagent: single siRNA against human genes. Timing: 3 days. Measured: 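Nuclei stained with Hoechst and imaged; cell-cycle phase assigned by DNA content; G2 share scaled per plate, non-targeting siRNA 0%, GMNN siRNA 100%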. Scale: G2 robust z-score and G2 cells, % of GMNN control: higher = more G2 cells, more excess DNA replication. Active means: 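An siRNA counts as active if its G2 robust z-score lies at least 5 MADs above the screen median; here such calls match roughly 38% of GMNN control or more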.
This is an unselected part of about 59,000 reagents tested. Of all reagents, about 1,550 (2.6%) are marked active. 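G2 share is only a proxy for re-replication; each gene was hit by three separate siRNAs, and active genes were retested.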 Further read-outs or replicates are left out here. The record does not give: the amount of reagent.

TBL1X [SID160717744] — G2 robust z-score = -0.657; G2 cells, % of GMNN control = -1.66; Call = inactive
TBL1X [SID160717745] — G2 robust z-score = 0.578; G2 cells, % of GMNN control = 7.03; Call = inactive
TBL1X [SID160717746] — G2 robust z-score = 1.44; G2 cells, % of GMNN control = 13.1; Call = inactive
ANKRD20A5P [SID160767787] — G2 robust z-score = 0.279; G2 cells, % of GMNN control = 4.93; Call = inactive
ANKRD20A5P [SID160767788] — G2 robust z-score = 1.45; G2 cells, % of GMNN control = 13.2; Call = inactive
ANKRD20A5P [SID160767789] — G2 robust z-score = -0.573; G2 cells, % of GMNN control = -1.07; Call = inactive
CDC25A [SID160740128] — G2 robust z-score = -0.403; G2 cells, % of GMNN control = 0.135; Call = inactive
CDC25A [SID160740137] — G2 robust z-score = -0.581; G2 cells, % of GMNN control = -1.12; Call = inactive
CDC25A [SID160740147] — G2 robust z-score = -0.873; G2 cells, % of GMNN control = -3.18; Call = inactive
THAP10 [SID160745267] — G2 robust z-score = 0.419; G2 cells, % of GMNN control = 5.92; Call = inactive
THAP10 [SID160745268] — G2 robust z-score = -0.769; G2 cells, % of GMNN control = -2.44; Call = inactive
THAP10 [SID160745269] — G2 robust z-score = 1.12; G2 cells, % of GMNN control = 10.8; Call = inactive
